Experimental data taken from publication PMC11099078.
These are yes or no findings as the source states them, for the method shown. Some results given as binding are weak or reduced against the parent protein; the word gives no strength.

Target: GCP3 (γ-tubulin complex protein 3, Xenopus laevis) (X. laevis (endogenous in egg extract)) (UniProt O73787)
Assay: cryo-EM structure; native γ-TuRC-capped MT minus ends from X. laevis egg extract, Paclitaxel or docetaxel; γ-TuRC-focused refinement 17 Å, MT-dominated refinement 23 Å; rigid-body docking of models

MZT1 (mitotic spindle organizing protein 1, Xenopus laevis) (from UniProt Q5U4M5 1-72)
binding: binds
